Binding data for 7 substances are collected here from article PMC5105168.

By UniProt entry, the sequences of proteins in these tests, tags left out. Where a name states a change or a piece, a line headed by the entry shows the natural chain unless it says otherwise. Chains listed by the source or under a name are the forms on record and can include a tag or linker. Residues count along the entry.
UniProt O43823: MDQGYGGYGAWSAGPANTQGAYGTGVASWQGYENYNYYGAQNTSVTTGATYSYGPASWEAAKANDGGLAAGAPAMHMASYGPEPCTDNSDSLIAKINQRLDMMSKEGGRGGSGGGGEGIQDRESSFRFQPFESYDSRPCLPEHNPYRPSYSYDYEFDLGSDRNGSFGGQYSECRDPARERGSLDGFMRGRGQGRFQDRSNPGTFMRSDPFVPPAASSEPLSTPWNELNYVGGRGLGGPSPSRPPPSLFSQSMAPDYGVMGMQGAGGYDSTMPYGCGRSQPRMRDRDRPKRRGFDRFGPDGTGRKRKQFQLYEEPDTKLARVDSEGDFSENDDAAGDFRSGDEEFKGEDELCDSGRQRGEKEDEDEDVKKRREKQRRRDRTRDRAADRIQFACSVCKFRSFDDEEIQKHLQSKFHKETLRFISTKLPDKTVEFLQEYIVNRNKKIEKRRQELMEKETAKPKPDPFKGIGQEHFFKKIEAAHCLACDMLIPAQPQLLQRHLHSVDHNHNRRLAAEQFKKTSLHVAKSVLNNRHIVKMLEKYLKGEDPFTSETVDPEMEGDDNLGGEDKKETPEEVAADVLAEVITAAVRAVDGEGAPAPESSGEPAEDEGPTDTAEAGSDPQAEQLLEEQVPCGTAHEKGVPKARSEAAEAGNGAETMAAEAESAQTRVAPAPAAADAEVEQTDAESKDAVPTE
FLAG-HA-tagged AKAP95 (101–692): residues 101-692 of O43823
UniProt P31943: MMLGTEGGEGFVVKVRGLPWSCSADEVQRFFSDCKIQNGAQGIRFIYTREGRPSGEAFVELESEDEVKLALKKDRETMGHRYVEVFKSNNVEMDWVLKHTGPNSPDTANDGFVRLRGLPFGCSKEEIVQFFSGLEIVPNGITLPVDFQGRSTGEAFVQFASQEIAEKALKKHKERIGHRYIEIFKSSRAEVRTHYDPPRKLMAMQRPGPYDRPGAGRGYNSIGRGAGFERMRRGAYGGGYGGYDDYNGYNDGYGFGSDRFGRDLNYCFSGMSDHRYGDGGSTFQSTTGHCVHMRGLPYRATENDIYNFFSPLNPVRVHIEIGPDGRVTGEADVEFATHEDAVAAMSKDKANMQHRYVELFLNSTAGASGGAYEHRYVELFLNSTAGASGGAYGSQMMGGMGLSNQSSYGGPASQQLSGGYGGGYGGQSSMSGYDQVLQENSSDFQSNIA
UniProt Q01844: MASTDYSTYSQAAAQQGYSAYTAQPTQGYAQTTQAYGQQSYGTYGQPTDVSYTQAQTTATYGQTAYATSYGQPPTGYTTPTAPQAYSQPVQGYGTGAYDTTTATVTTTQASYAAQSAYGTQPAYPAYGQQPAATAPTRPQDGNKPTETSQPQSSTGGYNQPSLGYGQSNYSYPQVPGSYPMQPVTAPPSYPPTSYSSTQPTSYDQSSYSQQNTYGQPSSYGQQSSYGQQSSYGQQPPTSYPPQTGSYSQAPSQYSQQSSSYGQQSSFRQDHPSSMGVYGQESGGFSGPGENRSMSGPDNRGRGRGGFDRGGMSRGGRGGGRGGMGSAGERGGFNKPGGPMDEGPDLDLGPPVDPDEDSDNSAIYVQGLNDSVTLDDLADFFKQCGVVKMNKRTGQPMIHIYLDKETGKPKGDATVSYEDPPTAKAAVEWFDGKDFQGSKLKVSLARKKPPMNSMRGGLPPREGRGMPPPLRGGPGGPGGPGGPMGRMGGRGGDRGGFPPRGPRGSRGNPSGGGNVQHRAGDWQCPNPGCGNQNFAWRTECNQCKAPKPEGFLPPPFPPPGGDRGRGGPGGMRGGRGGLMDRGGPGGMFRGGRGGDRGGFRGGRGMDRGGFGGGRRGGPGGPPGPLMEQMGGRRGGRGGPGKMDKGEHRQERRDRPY
UniProt Q8IZL8: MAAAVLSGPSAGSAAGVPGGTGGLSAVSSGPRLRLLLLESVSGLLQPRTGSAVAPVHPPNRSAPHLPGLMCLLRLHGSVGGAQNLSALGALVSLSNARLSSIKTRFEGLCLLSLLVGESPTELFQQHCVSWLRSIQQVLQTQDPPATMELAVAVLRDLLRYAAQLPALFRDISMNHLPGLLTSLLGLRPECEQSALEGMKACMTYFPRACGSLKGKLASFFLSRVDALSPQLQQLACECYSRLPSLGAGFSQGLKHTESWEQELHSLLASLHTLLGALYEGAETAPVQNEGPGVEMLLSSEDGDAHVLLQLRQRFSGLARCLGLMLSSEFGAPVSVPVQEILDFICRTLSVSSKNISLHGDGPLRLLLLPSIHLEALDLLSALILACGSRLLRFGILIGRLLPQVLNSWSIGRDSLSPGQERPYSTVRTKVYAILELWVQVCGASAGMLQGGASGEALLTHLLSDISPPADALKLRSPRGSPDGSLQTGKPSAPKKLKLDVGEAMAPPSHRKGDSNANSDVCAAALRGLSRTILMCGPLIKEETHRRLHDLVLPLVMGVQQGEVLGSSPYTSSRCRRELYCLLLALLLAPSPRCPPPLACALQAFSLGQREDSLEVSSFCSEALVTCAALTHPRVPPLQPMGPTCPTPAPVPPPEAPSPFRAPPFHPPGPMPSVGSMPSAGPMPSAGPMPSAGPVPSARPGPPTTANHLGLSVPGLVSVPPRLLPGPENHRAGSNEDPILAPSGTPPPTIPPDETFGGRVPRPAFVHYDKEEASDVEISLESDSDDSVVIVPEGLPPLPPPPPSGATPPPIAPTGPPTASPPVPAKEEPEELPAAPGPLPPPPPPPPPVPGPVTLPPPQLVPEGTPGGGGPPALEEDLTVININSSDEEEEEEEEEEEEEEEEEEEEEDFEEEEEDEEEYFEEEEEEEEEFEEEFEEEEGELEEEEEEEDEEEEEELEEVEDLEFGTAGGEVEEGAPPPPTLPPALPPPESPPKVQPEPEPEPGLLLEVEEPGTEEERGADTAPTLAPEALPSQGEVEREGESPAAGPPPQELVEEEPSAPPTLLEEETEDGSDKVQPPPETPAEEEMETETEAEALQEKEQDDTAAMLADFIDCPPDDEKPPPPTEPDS
UniProt P17844: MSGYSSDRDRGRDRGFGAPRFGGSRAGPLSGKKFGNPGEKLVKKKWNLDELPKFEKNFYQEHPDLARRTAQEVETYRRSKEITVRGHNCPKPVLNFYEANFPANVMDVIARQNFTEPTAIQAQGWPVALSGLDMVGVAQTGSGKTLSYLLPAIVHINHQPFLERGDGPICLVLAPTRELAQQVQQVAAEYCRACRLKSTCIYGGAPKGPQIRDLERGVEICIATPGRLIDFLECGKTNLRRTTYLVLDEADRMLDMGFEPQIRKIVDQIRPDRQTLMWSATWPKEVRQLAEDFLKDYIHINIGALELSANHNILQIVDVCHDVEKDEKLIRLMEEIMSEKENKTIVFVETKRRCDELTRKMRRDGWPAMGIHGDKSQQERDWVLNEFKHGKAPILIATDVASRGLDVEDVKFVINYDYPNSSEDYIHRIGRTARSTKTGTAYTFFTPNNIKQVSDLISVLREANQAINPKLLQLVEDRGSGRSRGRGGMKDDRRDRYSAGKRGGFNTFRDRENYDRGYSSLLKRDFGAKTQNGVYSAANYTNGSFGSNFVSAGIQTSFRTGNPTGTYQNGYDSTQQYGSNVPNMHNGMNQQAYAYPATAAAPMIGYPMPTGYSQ
UniProt Q6NZY4: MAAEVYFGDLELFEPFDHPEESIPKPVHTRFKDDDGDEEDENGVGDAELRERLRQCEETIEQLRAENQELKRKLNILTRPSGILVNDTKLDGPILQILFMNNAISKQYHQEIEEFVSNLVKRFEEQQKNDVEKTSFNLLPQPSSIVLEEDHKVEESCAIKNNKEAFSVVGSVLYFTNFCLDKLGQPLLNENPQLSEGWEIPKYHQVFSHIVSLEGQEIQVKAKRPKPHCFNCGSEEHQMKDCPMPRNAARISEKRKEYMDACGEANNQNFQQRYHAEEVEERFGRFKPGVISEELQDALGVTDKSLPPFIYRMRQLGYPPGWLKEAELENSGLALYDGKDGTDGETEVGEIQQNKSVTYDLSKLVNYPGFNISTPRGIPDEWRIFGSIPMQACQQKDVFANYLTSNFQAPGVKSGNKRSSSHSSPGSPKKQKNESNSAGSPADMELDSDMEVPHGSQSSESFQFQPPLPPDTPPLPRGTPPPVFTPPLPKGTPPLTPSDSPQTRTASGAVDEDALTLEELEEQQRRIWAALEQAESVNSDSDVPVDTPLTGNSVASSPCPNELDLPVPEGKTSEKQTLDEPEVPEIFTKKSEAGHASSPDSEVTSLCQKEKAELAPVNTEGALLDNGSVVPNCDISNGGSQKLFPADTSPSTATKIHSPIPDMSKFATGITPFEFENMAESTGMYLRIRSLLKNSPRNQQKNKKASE
UniProt Q92841: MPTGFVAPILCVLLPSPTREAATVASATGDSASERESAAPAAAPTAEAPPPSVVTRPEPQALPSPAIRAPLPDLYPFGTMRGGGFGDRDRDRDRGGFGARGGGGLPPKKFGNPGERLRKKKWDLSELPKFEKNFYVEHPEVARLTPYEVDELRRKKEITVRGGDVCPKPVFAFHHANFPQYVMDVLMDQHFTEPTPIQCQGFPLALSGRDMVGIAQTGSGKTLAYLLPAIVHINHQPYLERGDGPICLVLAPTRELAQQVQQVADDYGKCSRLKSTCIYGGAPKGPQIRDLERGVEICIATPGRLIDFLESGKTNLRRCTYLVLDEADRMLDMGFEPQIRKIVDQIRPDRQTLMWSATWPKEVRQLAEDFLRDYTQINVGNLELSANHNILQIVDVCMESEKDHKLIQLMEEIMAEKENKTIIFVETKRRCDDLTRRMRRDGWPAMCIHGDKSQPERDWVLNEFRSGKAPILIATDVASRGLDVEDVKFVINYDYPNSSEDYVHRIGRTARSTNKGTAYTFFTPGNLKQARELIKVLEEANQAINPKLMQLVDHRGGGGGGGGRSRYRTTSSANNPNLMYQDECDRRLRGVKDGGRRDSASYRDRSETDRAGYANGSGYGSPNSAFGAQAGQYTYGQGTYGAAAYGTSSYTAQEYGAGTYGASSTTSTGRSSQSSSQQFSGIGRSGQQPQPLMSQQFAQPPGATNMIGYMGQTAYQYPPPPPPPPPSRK

For assay [1], the target named is FLAG-HA-tagged full-length human AKAP95 (human) (UniProt O43823). Put plainly: affinity purification with mass spectrometry; nuclear extracts of Flp-In-293 stable lines on anti-FLAG M2 agarose, BC300 with 0.1% NP40, 4 °C, 6 h; FLAG peptide elution, SDS-PAGE, MALDI mass spectrometry; proteins found with control cells excluded.
In assay [2] the target is FLAG-HA-tagged AKAP95 (101–692) (human) (UniProt O43823). The assay is described as above.

No constants are given. Whether binding was seen depends on the method and setting. Binding seen in cells or lysates may run through a third protein. These calls come from enrichment with a bait or labelling near it, and not all partners need be listed. For part of these data: A no says only that the protein was not detected with the bait.

With “hnRNP H1 (endogenous) (from UniProt P31943 1-449)”, the binding entry in assay [1] is on record as “binds”.
As for “hnRNP K (endogenous) (from UniProt P61978 1-463)”, the results for the binding entry in assay [2] and in assay [1] were “no binding” and “binds”, respectively.
“EWS (endogenous) (from UniProt Q01844 1-656)”: the binding entry in assay [2] was “no binding”; in assay [1], “binds”.
For “PELP1 (endogenous) (from UniProt Q8IZL8 1-1130)”, in that order: “no binding” and “binds”.
The matching figures for “DDX5 (endogenous) (from UniProt P17844 1-614)”: “no binding” and “binds”.
As to “ZCCHC8 (endogenous) (from UniProt Q6NZY4 1-707)”, the binding entry in assay [1] is recorded as “binds”.
With “DDX17 (endogenous) (from UniProt Q92841 1-729)”, the binding result is recorded as “no binding” in assay [2] and “binds” in assay [1].
